Our source for the binding signal values is publication PMC7862700.

What all share (test): DAPPL (digital affinity profiling via proximity ligation, sequencing)
Holding throughout (details): 10 mM Tris-HCl pH 7.5, 50 mM NaCl, 1 mM DTT, 4% glycerol, room temperature, 30 min; GST-TFs on glutathione beads, 16-mer random dsDNA library, 0.1% …; high values mean tight binding; double strand, one strand shown; scale: fold enrichment (6-mer frequency, TF over GST control)

Experiment [1] has as its target T1, GABPA (UniProt Q06546).
T1 sequence: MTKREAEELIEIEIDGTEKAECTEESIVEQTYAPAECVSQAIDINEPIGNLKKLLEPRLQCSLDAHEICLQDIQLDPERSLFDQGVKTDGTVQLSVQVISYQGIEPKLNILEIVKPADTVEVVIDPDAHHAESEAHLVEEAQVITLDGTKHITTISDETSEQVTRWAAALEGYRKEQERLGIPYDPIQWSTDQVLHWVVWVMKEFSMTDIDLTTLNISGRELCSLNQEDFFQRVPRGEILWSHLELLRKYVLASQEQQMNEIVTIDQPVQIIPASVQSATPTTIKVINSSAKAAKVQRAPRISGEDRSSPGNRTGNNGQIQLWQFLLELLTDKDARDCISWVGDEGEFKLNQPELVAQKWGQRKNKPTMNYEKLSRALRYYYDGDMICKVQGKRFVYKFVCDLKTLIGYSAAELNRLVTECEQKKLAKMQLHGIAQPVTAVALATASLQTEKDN

In experiment [2] the target is T2, ETS1 (UniProt P14921).
T2 sequence: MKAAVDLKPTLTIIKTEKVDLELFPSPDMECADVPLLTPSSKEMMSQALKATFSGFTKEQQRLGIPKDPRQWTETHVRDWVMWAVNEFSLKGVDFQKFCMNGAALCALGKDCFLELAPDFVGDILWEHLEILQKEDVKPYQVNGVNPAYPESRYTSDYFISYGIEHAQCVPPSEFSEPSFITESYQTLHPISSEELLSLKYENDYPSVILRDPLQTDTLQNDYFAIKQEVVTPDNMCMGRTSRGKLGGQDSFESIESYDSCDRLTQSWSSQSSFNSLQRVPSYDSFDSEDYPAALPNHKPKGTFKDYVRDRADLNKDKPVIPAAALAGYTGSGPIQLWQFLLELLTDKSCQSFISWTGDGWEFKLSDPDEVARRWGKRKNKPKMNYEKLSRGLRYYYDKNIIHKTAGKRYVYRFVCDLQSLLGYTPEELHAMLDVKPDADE

Experiment [3] addresses T3, SPDEF (UniProt O95238).
T3 sequence: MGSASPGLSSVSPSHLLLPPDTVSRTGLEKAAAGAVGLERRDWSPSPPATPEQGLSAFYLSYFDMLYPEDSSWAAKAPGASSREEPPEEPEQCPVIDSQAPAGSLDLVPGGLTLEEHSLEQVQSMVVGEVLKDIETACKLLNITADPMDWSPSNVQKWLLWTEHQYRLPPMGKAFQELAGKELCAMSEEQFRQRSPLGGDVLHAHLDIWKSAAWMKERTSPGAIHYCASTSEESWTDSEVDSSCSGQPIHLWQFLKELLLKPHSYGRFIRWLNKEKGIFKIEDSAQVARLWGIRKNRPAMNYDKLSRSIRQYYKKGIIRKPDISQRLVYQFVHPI

Only a part is listed here, and it is no random draw. For some assays here: At the low end of the ranking the order means little. This is one part of the list. For some assays here: The exact form of the protein is not confirmed.

GAAAGA: the binding signal came out at 0.97 in experiment [1], 0.981 in experiment [2] and 0.998 in experiment [3].
In the case of ATGTAT, the binding signal in experiment [1] is 1.27; in experiment [2], 1.44; in experiment [3], 1.65.
Regarding TCCAAT, the binding signal in experiment [1] was determined as 1.18; in experiment [2] it was 1.25; in experiment [3] it was 1.2.
For GAAATC, in that order: 1.34, 1.39 and 1.4.
For TTTTGC, in that order: 1.38, 1.37 and 1.35.
In the case of TTGGTG, the binding signal in experiment [1] stood at 1.42; in experiment [2] it was 1.28; in experiment [3], 1.33.
For TAAATA, the binding signal in experiment [1] was determined as 1.21; in experiment [2], 1.32; in experiment [3], 1.15.
For TACACC, the figures for the binding signal in experiment [1], in experiment [2] and in experiment [3] were 1.14, 1.2 and 1.24, respectively.
TATGCG: the binding signal in experiment [2] was found to be 1.33; in experiment [3], 1.36.
With AAAGAC, the binding signal stood at 1.11 in experiment [2] and 1.01 in experiment [3].
For the sequence TTATTT, the binding signal came to 1.37 in experiment [2] and 1.19 in experiment [3].
On to TTATGA, for which the binding signal in experiment [1] was 1.22; in experiment [2], 1.13; in experiment [3], 1.13.
ACCCGC: the values for the binding signal in experiment [1], in experiment [2] and in experiment [3] were 1.35, 1.31 and 1.16, respectively.
The corresponding values for AATCGC are 1.14, 1.09 and 0.997.
As to TTTTGA, the results for the binding signal in experiment [1], in experiment [2] and in experiment [3] were 1.13, 1.11 and 1.05, respectively.
In the case of GCTCTG, the binding signal in experiment [1] stood at 1.03; in experiment [2], 1.16; in experiment [3], 1.06.
Take CTGGCC: the binding signal turned out to be 1.11 in experiment [2] and 0.926 in experiment [3].
CCAATC: the binding signal in experiment [2] came to 1.23; in experiment [3], 1.16.
On to AGGTAT, for which the binding signal in experiment [1] is 1.07; in experiment [2], 1.06; in experiment [3], 1.12.
For the sequence CCATAT, the binding signal worked out at 1.22 in experiment [2] and 1.33 in experiment [3].
As for TCTACG, the binding signal in experiment [1] came out at 1.3; in experiment [2], 1.45; in experiment [3] it was 1.33.
Regarding TTAAAC, the binding signal in experiment [2] was determined as 1.32; in experiment [3], 1.18.
Regarding TCAATA, the binding signal in experiment [2] and in experiment [3] was 1.17 in each case.
For the sequence TCTCAC, the binding signal in experiment [1] came to 1.43; in experiment [2], 1.48; in experiment [3] it was 1.23.
With CCGATG, the binding signal in experiment [2] was 1.09; in experiment [3], 0.963.
Take TTCGTT: the figures for the binding signal in experiment [1], in experiment [2] and in experiment [3] were 1.33, 1.39 and 1.39, respectively.
For the sequence TCTCCG, the figures for the binding signal in experiment [2] and in experiment [3] were 1.47 and 1.65, respectively.
As to AAGCGA, the binding signal came to 0.958 in experiment [1], 1.04 in experiment [2] and 0.994 in experiment [3].
TCTAAG: the binding signal in experiment [2] is 1.33; in experiment [3] it was 1.1.
In the case of GGAATT, the binding signal in experiment [1] stood at 1; in experiment [2] it was 1.12; in experiment [3], 1.16.
On to CCGAAG, for which the binding signal in experiment [1] was 1.12; in experiment [2] it was 1.09; in experiment [3], 0.901.
Turning to CAGAAT, the binding signal was 1.08 in experiment [2] and 1.06 in experiment [3].
Take TTTTAA: the binding signal amounted to 1.28 in experiment [2] and 1.21 in experiment [3].
With AACCAA, the binding signal in experiment [1] came out at 1.25; in experiment [2], 1.19; in experiment [3], 1.21.
As for TTTGAA, the binding signal in experiment [1] turned out to be 1.2; in experiment [2], 1.19; in experiment [3], 1.15.
With CTAAGA, the binding signal stood at 1.16 in experiment [1], 1.11 in experiment [2] and 1.15 in experiment [3].
For ATGGAC, in that order: 1.21, 1.2 and 1.17.
As to GTATTT, the binding signal in experiment [2] worked out at 1.51; in experiment [3] it was 1.64.
Turning to CTCTCA, the values for the binding signal in experiment [1], in experiment [2] and in experiment [3] were 1.52, 1.49 and 1.32, respectively.
The corresponding values for CTCAAA are 1.16, 1.11 and 1.14.
Consider AAATGG, for which the binding signal in experiment [1] is 1.49; in experiment [2], 1.45; in experiment [3], 1.41.
For the sequence ACCCCG, the binding signal in experiment [1] is 1.29; in experiment [2], 1.22; in experiment [3] it was 1.15.
For the sequence CGATTC, the binding signal amounted to 1.15 in experiment [2] and 1.13 in experiment [3].
With TAGGCT, the binding signal in experiment [1] was determined as 1.3; in experiment [2], 1.19; in experiment [3] it was 1.24.
Turning to TGTCTC, the binding signal in experiment [2] was 1.27; in experiment [3], 1.33.
For CATTTA, in that order: 1.23 and 1.22.
As for CTAAAG, the binding signal amounted to 1.29 in experiment [2] and 1.26 in experiment [3].
Turning to TACTAA, the binding signal amounted to 1.21 in experiment [2] and 1.22 in experiment [3].
For CGTTAC, the binding signal was 1.25 in experiment [2] and 1.1 in experiment [3].
On to TCTGTC, for which the binding signal was 1.13 in experiment [2] and 1.15 in experiment [3].
Turning to GATGCT, the binding signal in experiment [2] and in experiment [3] was 1.2 throughout.
On to AATACA, for which the binding signal in experiment [2] was found to be 1.39; in experiment [3] it was 1.37.
As for CTTGCA, the binding signal in experiment [2] and in experiment [3] was 1.49 in each case.
Turning to TGCCGC, the binding signal turned out to be 1.25 in experiment [2] and 1.15 in experiment [3].
For TTTGCT, in that order: 1.19 and 1.16.
As to TTACGA, the binding signal in experiment [2] is 1.19; in experiment [3] it was 1.1.
Consider TAACAT, for which the binding signal in experiment [2] came out at 1.43; in experiment [3], 1.34.
TCGTAC: the binding signal in experiment [2] was determined as 1.07; in experiment [3], 1.06.
For TCGCTA, in that order: 1.16 and 1.03.
Take CTGCCT: the binding signal in experiment [2] is 1.3; in experiment [3] it was 1.31.
For the sequence TTAAAA, the binding signal in experiment [2] worked out at 1.28; in experiment [3] it was 1.15.
Regarding CAACAA, the binding signal amounted to 1.09 in experiment [2] and 0.995 in experiment [3].
Consider ATCACC, for which the binding signal in experiment [2] worked out at 1.09; in experiment [3], 1.12.
As to TTGGGT, the values for the binding signal in experiment [2] and in experiment [3] were 1.15 and 1.04, respectively.
Consider AGAAGC, for which the binding signal in experiment [2] stood at 1.18; in experiment [3] it was 1.15.
On to GCTTTC, for which the values for the binding signal in experiment [2] and in experiment [3] were 1.17 and 1.18, respectively.
On to CGTATG, for which the binding signal in experiment [2] and in experiment [3] was 1.05 each time.
For TGGTAG, the binding signal in experiment [2] turned out to be 1.1; in experiment [3], 0.995.
The corresponding values for TCTTGC are 1.42 and 1.33.
The corresponding values for AAGCAC are 1.16 and 1.29.
In the case of ACATTA, the binding signal in experiment [2] was determined as 1.15; in experiment [3] it was 1.12.
Regarding GTACTT, the values for the binding signal in experiment [2] and in experiment [3] were 1.94 and 2.57, respectively.
As for GGTCCC, the binding signal is 1.22 in experiment [2] and 1.29 in experiment [3].
For TCCCCT, in that order: 1.62 and 1.54.
In the case of AAAGGT, the binding signal stood at 1.13 in experiment [2] and 1.11 in experiment [3].
Consider AATAAC, for which the binding signal turned out to be 1.3 in experiment [2] and 1.21 in experiment [3].
Regarding ACTGCT, the values for the binding signal in experiment [2] and in experiment [3] were 1.57 and 1.26, respectively.
Regarding GACCTC, the values for the binding signal in experiment [2] and in experiment [3] were 1.4 and 1.29, respectively.
Take CGACGT: the binding signal came out at 1.08 in experiment [2] and 1.02 in experiment [3].
Take AGCTTC: the binding signal in experiment [2] worked out at 1.83; in experiment [3], 1.67.
The corresponding values for ATGATC are 1.15 and 1.27.
With CCTGGG, the binding signal in experiment [2] is 1.2; in experiment [3], 1.11.
On to TGGATG, for which the binding signal in experiment [2] was 1.49; in experiment [3] it was 1.53.
Turning to AACGTA, the binding signal in experiment [2] is 0.986; in experiment [3] it was 1.01.
In the case of ATCGCC, the binding signal in experiment [2] was 1.14; in experiment [3], 1.12.
Take AACAGC: the binding signal in experiment [2] was found to be 1.11; in experiment [3], 0.961.
Consider AACATC, for which the binding signal in experiment [2] amounted to 1.49; in experiment [3], 1.68.
In the case of TGGACC, the values for the binding signal in experiment [2] and in experiment [3] were 1.02 and 1.05, respectively.
With CCTCGT, the binding signal in experiment [2] stood at 1.16; in experiment [3], 1.19.
ATCCAA: the binding signal in experiment [2] worked out at 1.14; in experiment [3], 1.22.
